Results as given in patent US9611289B2, “Farnesoid X receptor modulators” (Intercept Pharmaceuticals, Inc., priority 2013, dated 2017).
Counter-ions that a name gives are not always drawn. For at least one compound, name, drawing or mass did not settle the structure.

Experiment: Surface tension at CMC
Type: physicochemical
Conditions: […] NaCl water solution

## CC[C@H]1[C@@H](O)[C@@H]2[C@H](CC[C@]3(C)[C@@H]([C@H](C)CCOS(=O)(=O)O)CC[C@@H]23)[C@@]2(C)CC[C@@H](O)C[C@@H]12 [Compound B, 6α-ethyl-3α,7α,23-trihydroxy-24-nor-5β-cholan-23-sulfate sodium salt]
  STCMC(c) (Dyne/cm) Surface Tension at CMC: 43.3-47.9 Dyne/cm
